Laboratory results reported in PubChem BioAssay AID504648 (National Center for Advancing Translational Sciences (NCATS), 2011).
Hit rate of the full screen: of about 390,000 compounds, about 610 (0.16%) were called active. Inconclusive results, whose numbers are uncertain, are shown with a selection of clear calls. Calls follow the shape of the dose curve; as a rule, active = well fitted inhibition curve with a large enough effect; inconclusive = small, poorly fitted or top-dose-only effect, or effect the other way, or another doubt; inactive = no such curve, though single readings can be large or run the other way. Where the call is inconclusive, the potency comes from a doubtful curve fit.

Assay: Nrf2 qHTS screen for inhibitors: counterscreen for cytotoxicity
Conditions: A549 ARE-Fluc cells, CellTiter-Fluor viability, 18-24 h; series mostly up to 46 µM
Procedure, shortened: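 A549 ARE_Fluc cells in 5% FBS OPTI-MEM were exposed to compounds in concentration-response for 18-24 h at 37 deg C. Viability was read by CellTiter-Fluor fluorescence (Ex 405/Em 525) after 30 min, before the luciferase read.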
Potency is read from the fitted curve at half-maximal effect.

Row | Compound | Potency
1 | Cc1nc(-c2c(C(=O)NNC(=O)Nc3c(C)cccc3C)noc2C)cs1 | inactive
2 | COc1ccc(OC)c(C2C/C(=N/O)C(C)C(c3cc(OC)ccc3OC)N2)c1 (centres undefined) | inconclusive: 1.03 µM [activator, full curve, poor fit]
3 | CC1CCCCC1NS(=O)(=O)c1ccc(S(=O)(=O)N2CCCC2)cc1 (centres undefined) | inconclusive: 3.66 µM [falling, partial curve, poor fit]
4 | COc1ccc(C)cc1S(=O)(=O)N1CCN(Cc2ccccc2)CC1 | inconclusive: 23.1 µM [activator, partial curve, poor fit]
5 | CCCCCCSc1cccc(-c2nc3ccc(C)cn3c2NC2CCCCC2)c1 | inconclusive: 20.6 µM [falling, single point]
6 | O=C(COC(=O)Cc1cccs1)NCc1ccc(F)cc1 | inactive
7 | NC(C(=O)O)c1nn[nH]n1 (centres undefined) | inactive
8 | CC(C)(C)c1ccc(C(=O)Nc2cccc(C(=O)N3CCOCC3)c2)cc1 | inconclusive: 29.1 µM [falling, single point]
9 | Cc1cccc(NC(=O)C2CCN(c3nnc(-n4c(C)ccc4C)s3)CC2)c1C | inactive
10 | Cc1ccc(S(=O)(=O)NCCc2cn3c(C)csc3n2)cc1 | inactive
11 | Nc1[nH]ncc1-c1ccccc1 | inactive
12 | COc1ccccc1C(=O)Nc1ccccc1N1CCCCC1 | inconclusive: 13 µM [activator, partial curve, poor fit]
13 | CCn1c(SCC(=O)Nc2nc3ccccc3s2)nc2c(c1=O)SC(C)C2 (centres undefined) | inconclusive: 23.1 µM [falling, partial curve, poor fit]
14 | O=C(OC1CCCCC1)c1ccc(NC(=O)c2ccco2)cc1 | inconclusive: 25.9 µM [falling, partial curve, poor fit]
15 | Cc1ccc(NC2=NCCCCC2)cc1C | inconclusive: 10.3 µM [activator, single point]
16 | Cc1cc(C)nc(N2CCC(C(=O)NCc3ccco3)CC2)n1 | inactive
17 | COc1ccc(/C=N/NC(=O)c2ccco2)cc1Cn1nc(C)cc1C | inactive
18 | O=C(NCc1ccco1)C(c1ccco1)N(Cc1cccs1)C(=O)Cn1nnc2ccccc21 (centres undefined) | inactive
19 | CCOC(=O)C1=C(C)NC2=C(C(=O)CCC2)C1c1cn(Cc2ccc(Cl)cc2Cl)nc1-c1ccccc1 (centres undefined) | inconclusive: 29.1 µM [falling, single point]
20 | Cc1cccc(-n2c(-c3ccccc3)cn3c4c(=O)[nH]c(=O)n(C)c4nc23)c1 | inactive
21 | OCCNc1nc(Nc2ccccc2Oc2ccccc2)nc(N2CCCC2)n1 | inconclusive: 20.6 µM [falling, partial curve, poor fit]
22 | COc1ccc(CN2CCN(Cc3ccco3)CC2)cc1OC | inactive

Arranged by length of the SMILES (falling): three of the compounds above.
Row | Compound | Potency
19 | CCOC(=O)C1=C(C)NC2=C(C(=O)CCC2)C1c1cn(Cc2ccc(Cl)cc2Cl)nc1-c1ccccc1 (centres undefined) | inconclusive: 29.1 µM [falling, single point]
1 | Cc1nc(-c2c(C(=O)NNC(=O)Nc3c(C)cccc3C)noc2C)cs1 | inactive
14 | O=C(OC1CCCCC1)c1ccc(NC(=O)c2ccco2)cc1 | inconclusive: 25.9 µM [falling, partial curve, poor fit]

(list continues)

Row | Compound | Potency
23 | Cc1cc(C)cc(NS(=O)(=O)c2ccc(Oc3ncc(C(F)(F)F)cc3Cl)cc2)c1 | inconclusive: 4.11 µM [falling, single point]
24 | CCN(CC)CCNC(=O)C(Cl)=C1C(Cl)=C(Cl)C(Cl)=C1Cl | inconclusive: 23.1 µM [falling, single point]
25 | CCN(CC)CCCN(Cc1cc2cc3c(cc2[nH]c1=O)OCO3)C(=O)Nc1ccccc1OC | inactive
26 | N#Cc1c(N)c(C#N)c(-c2ccc3c(c2)OCO3)c2c1CCCC2 | inactive
27 | CCOc1ccc2[nH]c(=O)c(CN(Cc3ccco3)C(CC)c3nnnn3Cc3ccccc3)cc2c1 (centres undefined) | inconclusive: 18.4 µM [falling, single point]
28 | Cc1nc2ccccc2n1S(=O)(=O)c1cc(C(=O)O)ccc1Cl | inactive
29 | CCOc1ccc(Cl)cc1C1=CC(=O)C[C@H](c2ccc(OC)cc2)C1 | inactive
30 | Cc1ccc(CNC(=O)c2cc3c(s2)-c2ccccc2SC3)cc1 | inconclusive: 32.6 µM [falling, single point]
31 | O=C(CN1c2ccccc2Sc2ccccc21)NNC(=O)Nc1ccc(Cl)cc1 | inconclusive: 20.6 µM [falling, single point]
32 | CCn1cc(C(=O)N2CCN(c3cccc(C(F)(F)F)c3)CC2)c2cc(OC)c(OC)cc2c1=O | inconclusive: 23.1 µM [falling, single point]
33 | CN1CCN(NC(=O)c2cn(-c3ccccc3)nc2-c2cccc(Br)c2)CC1 | inconclusive: 10.3 µM [activator, partial curve, poor fit]
34 | CCc1ccc(OC(C)C(=O)N2CCC(c3nc4ccccc4s3)CC2)cc1 (centres undefined) | inactive
35 | CCOc1ccc(-c2nonc2NC(=O)c2oc3ccc(Br)cc3c2C)cc1 | inconclusive: 29.1 µM [falling, single point]
36 | COc1ccc(NC(=O)c2cc(-c3cc(C)ccc3O)n[nH]2)cc1Cl | inconclusive: 7.31 µM [activator, partial curve, poor fit]
37 | CCc1cccc(NC(=O)C2CCN(C(=O)c3cnn(-c4ccccc4)c3-n3cccc3)CC2)c1 | inconclusive: 29.1 µM [falling, single point]
38 | COc1ccc2[nH]c3c(C)c4cc[n+](C)cc4c(C)c3c2c1 | inconclusive: 16.4 µM [falling, single point]
39 | Cc1ccc(NC(=O)CSc2nc3ccccc3c(=O)n2CCCN2CCCCC2)cc1C | inconclusive: 23.1 µM [falling, single point]
40 | CC(=O)OC(C)CS(=O)(=O)c1ccccc1 (centres undefined) | inconclusive: 18.4 µM [activator, partial curve, poor fit]
41 | COc1cc(Cl)c(C)cc1NC(=O)CSc1nnc(-c2ccco2)n1CC(C)C | inconclusive: 32.6 µM [falling, single point]
42 | Clc1ccc(/C(Cc2nc3ccccc3[nH]2)=N\Nc2ccccc2)cc1 | inconclusive: 29.1 µM [falling, single point]
43 | COc1ccc(-n2nc3c(c2NC(=O)c2c(-c4ccccc4Cl)noc2C)CS(=O)(=O)C3)cc1 | inconclusive: 23.1 µM [activator, partial curve, poor fit]
44 | COc1cc(/C=C2\SC(=S)N(CC(=O)O)C2=O)ccc1OC(=O)c1ccco1 | inconclusive: 16.4 µM [falling, partial curve]
